Experimental data: PubChem BioAssay AID1224830 (NIAID, 2016)
Assay: 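Host factors that control LPS-induced TNF expression in human macrophages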 (primary screen). Cell system: human THP-1 monocytic leukaemia cells, TNF dual-luciferase reporter clone, PMA-differentiated to macrophage-like cells. Reagents: siRNA pool against human genes, 50 nM. Duration: LPS for 4 h, given about 3 days after siRNA transfection. Challenge: bacterial LPS (TLR4 ligand), 10 ng/ml. Measurement: 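Ratio of firefly to renilla light, scaled to the plate median and expressed as a robust z-score per replicate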. Reading the numbers: TNF reporter robust z-score: higher = stronger TNF reporter response to LPS. Active means: 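a well is active when its z-score exceeds 2.8 or falls below -1.5; control wells carry no call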.
The deposit covers about 18,000 reagents; below is a random part of them. Over the whole deposit, about 2,900 (16%) are marked active. 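Calls are made per well; low scores hint the gene aids the LPS response, high scores that it dampens it.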 Repeated entries: four replicate wells of each siRNA pool.

target gene	PubChem SID	TNF reporter robust z-score	outcome
SLC6A2 (GeneID 6530)	SID315451469	-0.84	inactive
SLC6A2 (GeneID 6530)	SID315451469	-0.2	inactive
SLC6A2 (GeneID 6530)	SID315451469	-0.04	inactive
SLC6A2 (GeneID 6530)	SID315451469	0	inactive
APOL3 (GeneID 80833)	SID315459825	-0.2	inactive
APOL3 (GeneID 80833)	SID315459825	-0.4	inactive
APOL3 (GeneID 80833)	SID315459825	-0.08	inactive
APOL3 (GeneID 80833)	SID315459825	-0.45	inactive
NDUFAF2 (GeneID 91942)	SID315460965	-0.67	inactive
NDUFAF2 (GeneID 91942)	SID315460965	0.39	inactive
NDUFAF2 (GeneID 91942)	SID315460965	-0.74	inactive
NDUFAF2 (GeneID 91942)	SID315460965	0.17	inactive
GRM5 (GeneID 2915)	SID315449059	-0.47	inactive
GRM5 (GeneID 2915)	SID315449059	-0.58	inactive
GRM5 (GeneID 2915)	SID315449059	-0.83	inactive
GRM5 (GeneID 2915)	SID315449059	-0.39	inactive
ATRAID (GeneID 51374)	SID315456679	-0.22	inactive
ATRAID (GeneID 51374)	SID315456679	0.2	inactive
ATRAID (GeneID 51374)	SID315456679	0.26	inactive
ATRAID (GeneID 51374)	SID315456679	1.4	inactive
UBTD1 (GeneID 80019)	SID315459625	1.3	inactive
UBTD1 (GeneID 80019)	SID315459625	1.57	inactive
UBTD1 (GeneID 80019)	SID315459625	1.65	inactive
UBTD1 (GeneID 80019)	SID315459625	2.05	inactive
CPOX (GeneID 1371)	SID315448072	-0.68	inactive
CPOX (GeneID 1371)	SID315448072	0.18	inactive
CPOX (GeneID 1371)	SID315448072	0.07	inactive
CPOX (GeneID 1371)	SID315448072	-0.31	inactive
IFIT1 (GeneID 3434)	SID315449405	3.74	active
IFIT1 (GeneID 3434)	SID315449405	2.53	inactive
IFIT1 (GeneID 3434)	SID315449405	2.4	inactive
IFIT1 (GeneID 3434)	SID315449405	3.6	active
GATA6 (GeneID 2627)	SID315448847	0.2	inactive
GATA6 (GeneID 2627)	SID315448847	-0.14	inactive
GATA6 (GeneID 2627)	SID315448847	0.3	inactive
GATA6 (GeneID 2627)	SID315448847	0.73	inactive
THY1 (GeneID 7070)	SID315451872	-0.34	inactive
THY1 (GeneID 7070)	SID315451872	0.4	inactive
THY1 (GeneID 7070)	SID315451872	-0.3	inactive
THY1 (GeneID 7070)	SID315451872	-0.63	inactive
CLEC3B (GeneID 7123)	SID315451917	-1.36	inactive
CLEC3B (GeneID 7123)	SID315451917	-0.17	inactive
CLEC3B (GeneID 7123)	SID315451917	-0.19	inactive
CLEC3B (GeneID 7123)	SID315451917	-1.49	inactive
NEDD1 (GeneID 121441)	SID315461524	-0.41	inactive
NEDD1 (GeneID 121441)	SID315461524	-0.77	inactive
NEDD1 (GeneID 121441)	SID315461524	0.12	inactive
NEDD1 (GeneID 121441)	SID315461524	0.2	inactive
IFNK (GeneID 56832)	SID315458120	0.66	inactive
IFNK (GeneID 56832)	SID315458120	0.87	inactive
IFNK (GeneID 56832)	SID315458120	-0.16	inactive
IFNK (GeneID 56832)	SID315458120	1.91	inactive

7 consecutive records already listed, for reference:
target gene	PubChem SID	TNF reporter robust z-score	outcome
GATA6 (GeneID 2627)	SID315448847	0.3	inactive
GATA6 (GeneID 2627)	SID315448847	0.73	inactive
THY1 (GeneID 7070)	SID315451872	-0.34	inactive
THY1 (GeneID 7070)	SID315451872	0.4	inactive
THY1 (GeneID 7070)	SID315451872	-0.3	inactive
THY1 (GeneID 7070)	SID315451872	-0.63	inactive
CLEC3B (GeneID 7123)	SID315451917	-1.36	inactive

Additional records follow:
target gene	PubChem SID	TNF reporter robust z-score	outcome
CTSS (GeneID 1520)	SID315448184	0.51	inactive
CTSS (GeneID 1520)	SID315448184	0.15	inactive
CTSS (GeneID 1520)	SID315448184	-0.94	inactive
CTSS (GeneID 1520)	SID315448184	-0.37	inactive
TRPV3 (GeneID 162514)	SID315462751	-0.38	inactive
TRPV3 (GeneID 162514)	SID315462751	0.63	inactive
TRPV3 (GeneID 162514)	SID315462751	0.54	inactive
TRPV3 (GeneID 162514)	SID315462751	0.49	inactive
FBXO16 (GeneID 157574)	SID315462625	-0.57	inactive
FBXO16 (GeneID 157574)	SID315462625	-1.58	active
FBXO16 (GeneID 157574)	SID315462625	3.69	active
FBXO16 (GeneID 157574)	SID315462625	0.92	inactive
HACD1 (GeneID 9200)	SID315453116	-0.21	inactive
HACD1 (GeneID 9200)	SID315453116	0.21	inactive
HACD1 (GeneID 9200)	SID315453116	1.14	inactive
HACD1 (GeneID 9200)	SID315453116	1.52	inactive
DMTN (GeneID 2039)	SID315448524	-0.15	inactive
DMTN (GeneID 2039)	SID315448524	-0.06	inactive
DMTN (GeneID 2039)	SID315448524	-0.27	inactive
DMTN (GeneID 2039)	SID315448524	0.58	inactive
CCDC171 (GeneID 203238)	SID315463119	1.72	inactive
CCDC171 (GeneID 203238)	SID315463119	0.2	inactive
CCDC171 (GeneID 203238)	SID315463119	0.17	inactive
CCDC171 (GeneID 203238)	SID315463119	2.37	inactive
RAB6D (GeneID 150786)	SID315462470	-1.42	inactive
RAB6D (GeneID 150786)	SID315462470	-1.32	inactive
RAB6D (GeneID 150786)	SID315462470	-0.74	inactive
RAB6D (GeneID 150786)	SID315462470	-1.25	inactive
NPM2 (GeneID 10361)	SID315454030	0.74	inactive
NPM2 (GeneID 10361)	SID315454030	1.21	inactive
NPM2 (GeneID 10361)	SID315454030	1.68	inactive
NPM2 (GeneID 10361)	SID315454030	2.07	inactive
SRD5A1 (GeneID 6715)	SID315451626	-0.39	inactive
SRD5A1 (GeneID 6715)	SID315451626	0.16	inactive
SRD5A1 (GeneID 6715)	SID315451626	0.35	inactive
SRD5A1 (GeneID 6715)	SID315451626	1.1	inactive
NTRK2 (GeneID 4915)	SID315450320	0.89	inactive
NTRK2 (GeneID 4915)	SID315450320	0.21	inactive
NTRK2 (GeneID 4915)	SID315450320	0.77	inactive
NTRK2 (GeneID 4915)	SID315450320	-1.1	inactive
CCNP (GeneID 79935)	SID315459575	-1.18	inactive
CCNP (GeneID 79935)	SID315459575	-0.37	inactive
CCNP (GeneID 79935)	SID315459575	0.11	inactive
CCNP (GeneID 79935)	SID315459575	0.41	inactive
ATP13A3 (GeneID 79572)	SID315459298	-0.88	inactive
ATP13A3 (GeneID 79572)	SID315459298	-1.16	inactive
ATP13A3 (GeneID 79572)	SID315459298	-0.51	inactive
ATP13A3 (GeneID 79572)	SID315459298	0.07	inactive
KRT73 (GeneID 319101)	SID315463942	1.03	inactive
KRT73 (GeneID 319101)	SID315463942	-0.64	inactive
KRT73 (GeneID 319101)	SID315463942	-0.84	inactive
KRT73 (GeneID 319101)	SID315463942	1.38	inactive
SNAP29 (GeneID 9342)	SID315453212	0.33	inactive
SNAP29 (GeneID 9342)	SID315453212	0.88	inactive
SNAP29 (GeneID 9342)	SID315453212	0.9	inactive
SNAP29 (GeneID 9342)	SID315453212	0.59	inactive
SLC44A2 (GeneID 57153)	SID315458300	1.67	inactive
SLC44A2 (GeneID 57153)	SID315458300	4.9	active
SLC44A2 (GeneID 57153)	SID315458300	1.43	inactive
SLC44A2 (GeneID 57153)	SID315458300	2.42	inactive
